For some of these results: HELM strings list residues between dots; [ac] is acetyl, [am] amide, other brackets name non-standard units.
Tests used:
[1] = general procedure: Fmoc solid-phase peptide synthesis; Gyros Rink amide resin; HCTU/DIEA; DIC/Oxyma for SEQ ID NO: 39; details: whole synthesis, analytical reversed-phase HPLC, integration of the signal at 214 nm, scale 0.25 mmole
[2] = general procedure: Fmoc solid-phase peptide synthesis; Wang resin; HCTU/DIEA; DIC/Oxyma for SEQ ID NO: 39; details: whole synthesis, scale 0.5 mmol
[3] = general procedure: Fmoc solid-phase peptide synthesis; Rink amide aminomethyl resin (0.69 mmol/g, Novabiochem) or Rink amide ChemMatrix resin (0.4 mmol/g, Biotage); Wang resin; HCTU/DIEA; DIC/Oxyma for SEQ ID NO: 39; details: oxidative folding step, analytical reversed-phase HPLC, integration of the signal at 214 nm

| Substance | final LC-MS purity [1] [%] | crude mass [2] [g] | crude yield ([2]; theoretical crude 0.92 g) [%] | final HPLC purity [3] [%] |
| --- | --- | --- | --- | --- |
| PEPTIDE1{[XbA].P.Y.C.V.Y.R.[XbA].S.W.S.C.G.G.[XK_lauroylgEgE].G.[am]}$PEPTIDE1,PEPTIDE1,4:R3-12:R3$$$V2.0 | >95 | – | – | – |
| H-βA1a-Pro-Tyr(tBu)-Cys(Trt)-Val-Tyr(tBu)-Arg (Pbf)-βA1a-Ser(tBu)-Trp(Boc)-Ser(tBu)-Cys(Trt)-Ahx-Ahx-Ahx-Pra-OH | – | 0.55 | 59.78 | >95 |

Reference: patent US20260139007A1 (SANFORD BURNHAM PREBYS MEDICAL DISCOVERY INSTITUTE, priority 2023, published 2026)
